Results: publication PMC3427169, “Interaction of Mycobacterium tuberculosis RshA and SigH Is Mediated by Salt Bridges” (PLoS ONE, 2012)
No constants are given. Whether binding was seen depends on the method and setting. Binding seen in cells or lysates may run through a third protein. Some entries that bind do so weakly or less than the wild type.

Chains of the proteins cited; added tags and fusions are not shown. Lines headed by an entry give the natural chain unless they say otherwise; changes in a name come on top.
UniProt P9WJ69, whole entry, looked up, stated change not applied: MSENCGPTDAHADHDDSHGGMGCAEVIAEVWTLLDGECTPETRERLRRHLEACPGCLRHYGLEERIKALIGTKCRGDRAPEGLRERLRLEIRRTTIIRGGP

Target: GST-tagged RshA CXXC to AXXA mutant (Mycobacterium tuberculosis H37Rv) (UniProt P9WJ69)
Experiment: pull-down; soluble fractions of two E. coli lysates (5.0 mg crude protein each; GST fusion and 6xHis protein) mixed in 50 mM Tris HCl pH 7.5, 100 mM NaCl, 10 mM DTT, 0.01% Triton X-100, 4°C 3 h; glutathione resin 2 h 22°C; washes up to 300 mM NaCl; Coomassie and anti-6xHis blot

In the case of “Mycobacterium tuberculosis SigH, 6xHis-tagged (pET29a) (from UniProt P9WGH9 1-216)”, the binding was “binds”.
